# Biological target: TRPM3α1 (Mus musculus, UniProt J9SQF3)
# The chains behind the UniProt entries cited, without tags or fusion partners. Residues count along the entry.
# UniProt J9SQF3, 1-1721 isoform J9SQF3-8: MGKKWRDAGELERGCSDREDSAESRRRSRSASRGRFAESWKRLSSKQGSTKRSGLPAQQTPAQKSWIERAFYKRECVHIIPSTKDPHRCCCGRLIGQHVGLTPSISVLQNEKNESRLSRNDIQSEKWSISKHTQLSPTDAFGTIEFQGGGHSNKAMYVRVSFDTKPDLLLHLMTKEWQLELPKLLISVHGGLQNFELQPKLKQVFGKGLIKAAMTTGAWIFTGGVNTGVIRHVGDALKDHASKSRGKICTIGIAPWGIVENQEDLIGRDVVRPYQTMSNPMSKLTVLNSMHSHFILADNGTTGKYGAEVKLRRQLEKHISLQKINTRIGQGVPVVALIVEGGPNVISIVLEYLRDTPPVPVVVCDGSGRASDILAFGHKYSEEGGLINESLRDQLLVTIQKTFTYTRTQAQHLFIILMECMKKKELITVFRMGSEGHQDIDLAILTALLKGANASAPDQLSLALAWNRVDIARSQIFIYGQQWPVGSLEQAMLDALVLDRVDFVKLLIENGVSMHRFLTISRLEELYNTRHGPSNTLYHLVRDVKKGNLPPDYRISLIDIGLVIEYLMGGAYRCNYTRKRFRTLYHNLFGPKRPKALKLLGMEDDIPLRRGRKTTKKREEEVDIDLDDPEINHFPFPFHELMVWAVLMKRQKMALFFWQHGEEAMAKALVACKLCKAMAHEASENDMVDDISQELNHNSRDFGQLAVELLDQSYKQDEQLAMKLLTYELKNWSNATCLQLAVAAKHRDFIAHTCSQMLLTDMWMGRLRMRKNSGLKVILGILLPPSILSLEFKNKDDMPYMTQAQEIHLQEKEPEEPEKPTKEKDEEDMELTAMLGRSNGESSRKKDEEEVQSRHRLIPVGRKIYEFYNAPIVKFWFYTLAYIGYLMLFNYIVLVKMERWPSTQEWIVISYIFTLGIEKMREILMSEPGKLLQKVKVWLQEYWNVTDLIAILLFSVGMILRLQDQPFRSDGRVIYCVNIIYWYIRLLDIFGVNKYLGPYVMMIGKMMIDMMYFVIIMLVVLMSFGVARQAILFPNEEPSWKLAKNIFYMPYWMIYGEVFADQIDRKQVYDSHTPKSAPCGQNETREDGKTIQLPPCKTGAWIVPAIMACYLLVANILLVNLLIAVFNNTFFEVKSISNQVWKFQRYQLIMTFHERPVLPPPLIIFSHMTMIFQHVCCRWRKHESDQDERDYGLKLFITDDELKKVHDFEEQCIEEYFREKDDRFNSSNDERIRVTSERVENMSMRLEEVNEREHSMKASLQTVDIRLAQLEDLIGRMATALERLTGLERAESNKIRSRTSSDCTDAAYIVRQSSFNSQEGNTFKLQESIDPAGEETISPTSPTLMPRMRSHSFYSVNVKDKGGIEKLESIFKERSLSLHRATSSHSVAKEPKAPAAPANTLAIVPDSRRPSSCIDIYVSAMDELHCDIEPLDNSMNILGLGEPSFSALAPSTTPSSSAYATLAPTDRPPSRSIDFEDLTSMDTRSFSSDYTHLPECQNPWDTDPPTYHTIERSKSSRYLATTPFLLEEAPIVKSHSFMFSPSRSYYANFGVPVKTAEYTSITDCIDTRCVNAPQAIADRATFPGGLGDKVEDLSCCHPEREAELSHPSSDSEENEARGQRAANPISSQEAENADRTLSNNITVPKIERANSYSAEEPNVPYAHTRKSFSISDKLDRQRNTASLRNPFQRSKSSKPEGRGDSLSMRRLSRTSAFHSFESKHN
# Assay: Whole-cell patch clamp, HEK293T cells expressing TRPM3α1
# Assay type: cell-based
smiles,measurement,value
"Clc1ccccc1C(c1ccccc1)(c1ccccc1)n1ccnc1 [clotrimazole, Clotrimazole]",EC50,3 µM

# Source: publication PMC9290681 (British Journal of Pharmacology, 2020)
